# From US20210309860A1, “ANTHRAQUINONIC DERIVATIVES AND THEIR USE AS COLOURING AGENTS” (PILI, priority 2018, published 2021)
# At least one structure is not confirmed: it was looked up by name or label, or the drawing left a doubt.
# Assay: UV-Visible analysis in methanol
# Assay type: physicochemical
# Method: UV-Visible analysis was carried on a Genesys10 UV photometer and recorded with the help of “VisionLite Scan” software. For each molecule, a certain amount was weighed with a precision balance and fully dissolved (under sonication if necessary) in methanol to obtain a mother solution at 1 mg/mL. Serial dilutions were performed to obtain samples in a range from 0.0025 mg/mL to 0.5 mg/mL. Samples were analyzed from 190 to 800 nm in a 1 cm quartz cuvette. For each concentration, the wavelength of maximum absorption in the visible spectra (400-800 nm) was recorded with a precision of 2 nm, and the width was measured at A/2. Additionally, molar extinction coefficient ε was calculated for each sample and the log of the average value presented. λmax visible characterizes the colour, L1/2 characterizes the brilliance of the colour, ε characterizes the strength of the colour.
structure (smiles),measurement,setting,value
"Cc1cc(O)c(N)c2c1C(=O)c1c(O)ccc(N)c1C2=O [Compound 18b, 1,8-diamino-2,5-dihydroxy-4-methyl-anthracene-9,10-dione]",Colour,methanol solution,Purple
same,log ε,"methanol, log of average molar extinction coefficient, characterizes the strength of the colour",3.33
same,λmax visible,"methanol, maximum absorption in visible spectra 400-800 nm, 1 cm quartz cuvette, characterizes the colour",512 nm
same,L1/2,"methanol, width measured at A/2, characterizes the brilliance of the colour",109 nm
